These are yes or no findings as the source states them, for the method shown. Binding seen in cells or lysates may run through a third protein. Some results given as binding are weak or reduced against the parent protein; the word gives no strength. For some assays here: Tags and fused reporters may be left off the sequences shown.
Tests used:
Myc-TRAIP wild type = target: T1, Myc-TRAIP wild type (UniProt Q9BWF2); assay: co-IP; 293T cells co-transfected with Myc-TRAIP and GFP-ZNF212 WT, deletion mutants or NLS-fragments; 24 h; lysates with benzonase; IP with anti-Myc bead, immunoblot
T1 sequence: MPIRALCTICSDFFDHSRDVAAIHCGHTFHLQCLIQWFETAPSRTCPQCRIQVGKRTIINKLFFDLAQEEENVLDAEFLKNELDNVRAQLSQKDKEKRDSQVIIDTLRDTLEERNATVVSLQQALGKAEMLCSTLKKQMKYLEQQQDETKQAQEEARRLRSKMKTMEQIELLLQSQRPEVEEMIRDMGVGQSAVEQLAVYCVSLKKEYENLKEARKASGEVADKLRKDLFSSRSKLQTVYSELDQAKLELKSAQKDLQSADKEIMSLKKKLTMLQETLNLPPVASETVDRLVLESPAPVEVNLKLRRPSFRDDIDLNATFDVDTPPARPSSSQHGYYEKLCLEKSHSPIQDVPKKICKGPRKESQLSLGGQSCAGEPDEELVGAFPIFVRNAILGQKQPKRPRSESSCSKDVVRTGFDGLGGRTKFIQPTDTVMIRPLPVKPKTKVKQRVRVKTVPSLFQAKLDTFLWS

Chains of the proteins cited; added tags and fusions are not shown. Lines headed by an entry give the natural chain unless they say otherwise; changes in a name come on top.
UniProt Q9UDV6: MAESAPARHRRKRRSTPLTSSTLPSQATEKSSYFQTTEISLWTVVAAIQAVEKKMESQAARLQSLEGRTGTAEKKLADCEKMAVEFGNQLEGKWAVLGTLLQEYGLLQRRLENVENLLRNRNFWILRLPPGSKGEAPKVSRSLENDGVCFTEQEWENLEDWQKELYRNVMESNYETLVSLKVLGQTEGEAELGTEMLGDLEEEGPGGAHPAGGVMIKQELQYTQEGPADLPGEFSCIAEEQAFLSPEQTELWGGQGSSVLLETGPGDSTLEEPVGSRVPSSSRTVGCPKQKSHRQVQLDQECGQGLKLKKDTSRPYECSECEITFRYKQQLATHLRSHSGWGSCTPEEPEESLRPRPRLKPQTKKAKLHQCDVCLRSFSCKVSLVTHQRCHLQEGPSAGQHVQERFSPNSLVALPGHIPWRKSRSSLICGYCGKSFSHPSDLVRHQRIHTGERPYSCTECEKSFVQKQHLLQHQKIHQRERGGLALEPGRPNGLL

endogenous TRAIP = target: T2, endogenous TRAIP (UniProt Q9BWF2); assay: co-IP; endogenous proteins; IP with benzonase using rabbit IgG or anti-TRAIP antibodies, Western blot with ZNF212 specific antibody
T2 sequence: T1 sequence

Substance	binding (Myc-TRAIP wild type)	binding (endogenous TRAIP)
amino acid residues 1–40 of ZNF212 (from UniProt Q9UDV6 1-40) (domain or fragment)	no binding	–
endogenous ZNF212 (from UniProt Q9UDV6 1-495)	–	binds

Reference: article PMC9881131
